Measurements taken from the supplement of paper PMC10735217.
Counter-ions that a name gives are not always drawn. This is one part of the list. Repeats in this data set agree poorly, so a single value says little.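 In a drug-repurposing library screen, luminescence reads luciferase driven by eight TEAD-binding elements, stably integrated into human kidney-derived cells. Compounds scoring over five robust Z scores above the plate mean are called hits.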

Tested on: HEK293A TEAD-LUC reporter
Assay: TEAD-luciferase reporter activity (YAP activation), robust Z score vs plate; higher = stronger YAP/TEAD activation
Settings: 24 h

Structure (SMILES) | TEAD-luciferase reporter activity (compound concentration: 200 nM) | TEAD-luciferase reporter activity (compound concentration: 10 uM) | TEAD-luciferase reporter activity (compound concentration: 2 uM)
CSc1nc(=O)c2[nH]cc(Cc3cccnc3)c2[nH]1 | inactive: 3.26 | active: 7.15 | 
NNC(=O)c1ccncc1 [Isoniazid54-85-3] | inactive: -1.27 | inactive: -0.143 | 
NNC(=O)c1ccncc1 |  |  | inactive: 2.02
NC1CCN(c2nc3c(cc2F)c(=O)c(C(=O)O)cn3-c2ccc(F)cc2F)C1 (stereo unspecified) [tosufloxacin tosilate] | inactive: 0.895 | inactive: 2.2 | inactive: -0.712
O=C1Nc2ccccc2C12NCCc1c2[nH]c2ccc(F)cc12 (stereo unspecified) | inactive: -1.58 | inactive: 0.233 | inactive: -0.468
N#Cc1c(N)nc(SCc2csc(-c3ccc(Cl)cc3)n2)c(C#N)c1-c1ccc(OCCO)cc1 [capadenoson] | inactive: -0.474 | inactive: -0.914 | inactive: -1.91
O=C1CNC(=O)CN1 [piperazinedione] | inactive: 0.712 | inactive: 0.126 | inactive: -1.05
COc1ccc(C(=O)c2ccccc2)c(O)c1 [Oxybenzone] | inactive: 3.45 | inactive: -1.34 | 
COc1ccc(C(=O)c2ccccc2)c(O)c1 |  |  | inactive: -1.19
NC(=O)c1[nH]cnc1O | inactive: 0.127 | inactive: 2 | inactive: 0.375
COc1cc(C(=O)N[C@@H]2OC[C@@H](c3ccccc3)N3CCCC[C@@H]23)cc(OC)c1OC | inactive: -1.3 | inactive: 0.922 | inactive: 1.03
N[C@@H](CCC(=O)O)C(=O)N[C@@H](Cc1c[nH]c2ccccc12)C(=O)O | inactive: -0.543 | inactive: 1.59 | inactive: 0.651
CCOC(=O)C1CCN(C(=O)c2c[nH]c3ncccc23)CC1 | inactive: -1.06 | inactive: -0.835 | 
CCC(=O)Nc1ccc(C(=O)O)c(NC(=O)c2ccc(C(=O)O)cc2)c1 |  |  | inactive: -1.49
CCC(=O)Nc1ccc(C(=O)O)c(NC(=O)c2ccc(C(=O)O)cc2)c1 [AM-682 metabolite] | inactive: -1.39 | inactive: 1.03 | inactive: 0.555
C#CC1(OCC(O)CN2CCN(c3cccc(C(F)(F)F)c3)CC2)CCCCC1 (stereo unspecified) [terciprazine] | inactive: -1.4 | inactive: -2.49 | inactive: -0.338
CCc1ccc2c(-c3cccc(Cl)c3)nc(=O)n(CC)c2n1 | inactive: 2.13 | inactive: -0.529 | inactive: 0.124
CNC(=O)c1cc(Oc2ccc(NC(=O)Nc3ccc(Cl)c(C(F)(F)F)c3)cc2)ccn1 [Sorafenib] | inactive: -2.61 | inactive: -1.89 | inactive: -2.58
COc1cc2nc(N3CCN(C(=O)C4=CC5C=CC4CC5)CC3)nc(N)c2cc1OC (stereo unspecified) | inactive: -1.16 | inactive: 0.549 | inactive: 3.43
COc1ccnc2c1CCCCC2[S@+]([O-])c1nc2ccccc2[nH]1 (stereo partly specified) | inactive: -1.25 | inactive: -1.36 | inactive: 0.645

Quoted from the listing.
In TEAD-luciferase reporter activity (compound concentration: 2 uM), COc1cc(C(=O)N[C@@H]2OC[C@@H](c3ccccc3)N3CCCC[C@@H]23)cc(OC)c1OC is listed with inactive: 1.03
In TEAD-luciferase reporter activity (compound concentration: 2 uM), CCC(=O)Nc1ccc(C(=O)O)c(NC(=O)c2ccc(C(=O)O)cc2)c1 [AM-682 metabolite] is listed with inactive: 0.555

Carrying on:

Structure (SMILES) | TEAD-luciferase reporter activity (compound concentration: 200 nM) | TEAD-luciferase reporter activity (compound concentration: 10 uM) | TEAD-luciferase reporter activity (compound concentration: 2 uM)
O=C1[C@H](Cc2ccc(O)cc2)N2C(=O)CCN(C(=O)NCc3ccccc3)[C@H]2CN1Cc1cccc2ccccc12 | inactive: 0.598 | inactive: 0.869 | inactive: -1.09
CCc1nc2c(C)cc(C)nc2n1Cc1ccc([C@@H](c2ccccc2)[C@@H](C)C(=O)O)cc1 | inactive: 0.513 | inactive: 2.19 | inactive: -0.339
CCCCN(O)C(=O)Nc1cc(C2CCC(c3cc(OC)c(OC)c(OC)c3)O2)cc(OC)c1OCCC (stereo unspecified) | inactive: -0.312 | inactive: 1.14 | inactive: -0.795
C/C=C1/[C@H](O[C@@H]2O[C@H](CO)[C@@H](O)[C@H](O)[C@H]2O)OC=C(C(=O)OC)[C@H]1CC(=O)OCCc1ccc(O)c(O)c1 | inactive: -1.63 | inactive: -0.252 | inactive: 0.173
C/N=C1/SCC(O)(c2ccc(Cl)c(S(N)(=O)=O)c2)N1C (stereo unspecified) [tizolemide] | inactive: 0.0155 | inactive: -0.598 | inactive: -0.296
CC(=O)N1CCCN(C(=O)c2ccc3nccn3c2)CC1 | inactive: -1.16 | inactive: 2.34 | 
CCC(OC)(c1cccc(OCc2ccc3ccccc3c2)c1)c1nccs1 (stereo unspecified) | inactive: 0.0504 | inactive: 4.87 | inactive: 4.57
COc1cc(Cc2cnc(N)nc2N)c2c(c1OC)OC(C1CC1)C=C2 (stereo unspecified) [Iclaprim] | inactive: 1.1 | inactive: 0.596 | inactive: 0.702
COc1cc(Cc2cnc(N)nc2N)c2c(c1OC)OC(C1CC1)C=C2 (stereo unspecified) [iclaprim mesylate] |  |  | inactive: 0.727
CCN(CC)CCCNc1cc(OC)cc2cccnc12 | inactive: -1.25 | inactive: -1.87 | inactive: -2.46
O=C(O)CNC(=O)c1nc(Cl)c2ccccc2c1O | inactive: -0.814 | inactive: 1.07 | inactive: -0.341
C[C@@H](c1ccc2nccn2c1)n1nnc2ncc(-c3cnn(C)c3)nc21 [Savolitinib] | inactive: 0.0899 | inactive: -0.78 | inactive: -0.815
CCCC[C@]1(CC)CS(=O)(=O)c2cc(CNC(CC(=O)O)CC(=O)O)c(OC)cc2[C@@H](c2ccccc2)N1 | inactive: -0.418 | inactive: 0.451 | inactive: -1.31
COc1ccc(C(=O)c2c(C)oc3ccc(O)cc23)c(OC)c1OC | inactive: -1.74 | inactive: 0.000311 | inactive: 3.45
CN(C)CCN(Cc1cccs1)c1ccccn1 [Methapyrilene hydrochloride] | inactive: -0.95 | inactive: -0.185 | 
CN(C)CCN(Cc1cccs1)c1ccccn1 |  |  | inactive: 1
COc1cc2nccc(Oc3ccc(NC(=O)NC4CC4)c(Cl)c3)c2cc1C(N)=O [Lenvatinib mesylate] | inactive: -0.143 | inactive: -2.4 | inactive: -2.95
CCCNC(=O)Nc1ccc(OC)cc1C | inactive: -3.22 | inactive: 1.07 | inactive: 2.72
CC(C)C[C@H](N)C(=O)N1CCC[C@H]1C(=O)N[C@@H](Cc1ccc(O)cc1)C(=O)N[C@@H](Cc1ccccc1)C(=O)N[C@@H](CC(=O)O)C(N)=O | inactive: -1.74 | inactive: -0.526 | inactive: 0.935
